{"source": "PubChem BioAssay AID1259308 (NCATS, 2017)", "screen": "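Genes whose loss raises luciferase production in HEK293 cells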 (primary screen)", "cell system": "human HEK293 embryonic kidney cells stably expressing firefly luciferase (HEK-CMV-Luc2-Hygro)", "reagent": "single siRNA against human genes, 0.8 pmol siRNA per well", "timing": "72 h", "read-out": "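Reporter luminescence and viable-cell signal on separate replicate plates, given as percent of non-targeting control and median/MAD z-scores, plus per-cell luciferase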", "reading the numbers": "total luciferase, z-score: higher = more reporter protein produced", "rule for the call": "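Active when the median/MAD z-score for overall luciferase is greater than 3; a gene was taken forward for validation with new siRNAs if at least two of its three siRNAs passed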", "calls": "active = raised luciferase; inactive = no rise", "note": "Shown is an unselected part of about 59,000 reagents tested. In the full data, about 1,510 (2.6%) got an active call. 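Calls use total luciferase alone and ignore viability, so some active siRNAs may act by altering cell number.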 Reagents against one gene are numbered here. Further read-outs or replicates are left out here."}
{"gene": "NUBPL (NUBP iron-sulfur cluster assembly factor, mitochondrial)", "siRNA no.": 1, "total luciferase, z-score": -2.11, "activity call": "inactive"}
{"gene": "NUBPL (NUBP iron-sulfur cluster assembly factor, mitochondrial)", "siRNA no.": 2, "total luciferase, z-score": -0.702, "activity call": "inactive"}
{"gene": "NUBPL (NUBP iron-sulfur cluster assembly factor, mitochondrial)", "siRNA no.": 3, "total luciferase, z-score": -0.316, "activity call": "inactive"}
{"gene": "RASSF6 (Ras association domain family member 6)", "siRNA no.": 1, "total luciferase, z-score": 0.969, "activity call": "inactive"}
{"gene": "RASSF6 (Ras association domain family member 6)", "siRNA no.": 2, "total luciferase, z-score": 0.23, "activity call": "inactive"}
{"gene": "RASSF6 (Ras association domain family member 6)", "siRNA no.": 3, "total luciferase, z-score": -1.92, "activity call": "inactive"}

The list goes on; the last 2 above are carried over.
{"gene": "RASSF6 (Ras association domain family member 6)", "siRNA no.": 2, "total luciferase, z-score": 0.23, "activity call": "inactive"}
{"gene": "RASSF6 (Ras association domain family member 6)", "siRNA no.": 3, "total luciferase, z-score": -1.92, "activity call": "inactive"}
{"gene": "GPC2 (glypican 2)", "siRNA no.": 1, "total luciferase, z-score": -0.834, "activity call": "inactive"}
{"gene": "GPC2 (glypican 2)", "siRNA no.": 2, "total luciferase, z-score": 0.834, "activity call": "inactive"}
{"gene": "GPC2 (glypican 2)", "siRNA no.": 3, "total luciferase, z-score": -0.211, "activity call": "inactive"}
{"gene": "PRR15 (proline rich 15)", "siRNA no.": 1, "total luciferase, z-score": 3.34, "activity call": "active"}
{"gene": "PRR15 (proline rich 15)", "siRNA no.": 2, "total luciferase, z-score": -0.15, "activity call": "inactive"}
{"gene": "PRR15 (proline rich 15)", "siRNA no.": 3, "total luciferase, z-score": 3.46, "activity call": "active"}
